In patent US20130253037A1, “AURORA A KINASE EFFECTORS” (PURDUE RESEARCH FOUNDATION, priority 2010, published 2013):
Results are given in words; binding and its absence hold for the method and conditions named. Binding seen in cells or lysates may run through a third protein. Some results given as binding are weak or reduced against the parent protein; the word gives no strength.

Chains of the proteins cited; added tags and fusions are not shown.
UniProt Q8WV24: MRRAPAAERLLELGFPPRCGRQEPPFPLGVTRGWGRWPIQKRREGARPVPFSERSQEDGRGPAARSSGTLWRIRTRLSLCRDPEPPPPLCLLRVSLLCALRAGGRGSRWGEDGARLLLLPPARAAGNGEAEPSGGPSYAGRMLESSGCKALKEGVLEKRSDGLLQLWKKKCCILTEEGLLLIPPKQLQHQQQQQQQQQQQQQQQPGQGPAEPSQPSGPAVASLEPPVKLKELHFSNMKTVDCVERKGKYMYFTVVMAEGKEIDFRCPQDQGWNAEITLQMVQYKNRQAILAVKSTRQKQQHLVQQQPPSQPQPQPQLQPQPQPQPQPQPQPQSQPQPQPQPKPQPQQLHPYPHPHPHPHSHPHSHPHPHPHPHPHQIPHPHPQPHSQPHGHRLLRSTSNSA

Assays:
[1] = molecular target: Pleckstrin homology-like domain, family A, member 1 (PHLDA1) (endogenous, MDA-MB-231 cells) (UniProt Q8WV24); experiment: co-immunoprecipitation from MDA-MB-231 cells (PHLDA1 IP probed for Aurora A; Aurora A IP probed for PHLDA1)
[2] = molecular target: Pleckstrin homology-like domain, family A, member 1 (PHLDA1) (endogenous, MDA-MB-231 cells) (UniProt Q8WV24); experiment: co-immunoprecipitation from MDA cells; PHLDA1 immune complexes probed for Aurora A, with similar results in the reverse IP (FIG. 1C)

B1: Aurora A kinase (endogenous, MDA-MB-231 cells) (enzyme, human, UniProt O14965 1-403, looked up)
chain: MDRSKENCISGPVKATAPVGGPKRVLVTQQFPCQNPLPVNSGQAQRVLCPSNSSQRIPLQAQKLVSSHKPVQNQKQKQLQATSVPHPVSRPLNNTQKSKQPLPSAPENNPEEELASKQKNEESKKRQWALEDFEIGRPLGKGKFGNVYLAREKQSKFILALKVLFKAQLEKAGVEHQLRREVEIQSHLRHPNILRLYGYFHDATRVYLILEYAPLGTVYRELQKLSKFDEQRTATYITELANALSYCHSKRVIHRDIKPENLLLGSAGELKIADFGWSVHAPSSRRTTLCGTLDYLPPEMIEGRMHDEKVDLWSLGVLCYEFLVGKPPFEANTYQETYKRISRVEFTFPDFVTEGARDLISRLLKHNPSQRPMLREVLEHPWITANSSKPSNCQNKESASKQS
B1 was tested, and the binding [1] was “binds” and the binding [2] was “binds”.
